No constants are given. Whether binding was seen depends on the method and setting. Binding calls can cover weak binding; strength is not graded here.
Biological target: CheR of Pectobacterium atrosepticum SCRI1043 (Pectobacterium atrosepticum SCRI1043)
Experiment: ITC

Row | Binder | binding
1 | NWEKF [NWEKF pentapeptide] | binds
2 | NWEQF [NWETF derivative containing Q instead of T] | binds
